Measurements taken from patent US20170269076A1.
These are yes or no findings as the source states them, for the method shown. In cells and extracts the contact can be indirect. Some results given as binding are weak or reduced against the parent protein; the word gives no strength.

Sequences of proteins named here, by UniProt entry; tags and fusion partners are left off. A change or cut given only in a name is not applied to a line headed by its entry.
UniProt P10923: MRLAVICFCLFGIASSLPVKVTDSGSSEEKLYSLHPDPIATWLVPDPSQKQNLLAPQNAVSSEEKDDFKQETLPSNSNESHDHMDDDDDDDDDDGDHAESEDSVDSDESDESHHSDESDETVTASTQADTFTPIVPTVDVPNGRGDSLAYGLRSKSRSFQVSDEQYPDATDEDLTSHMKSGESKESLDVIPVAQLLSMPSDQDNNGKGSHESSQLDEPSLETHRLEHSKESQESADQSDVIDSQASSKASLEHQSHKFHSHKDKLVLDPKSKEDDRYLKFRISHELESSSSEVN

Key:
[1] = target: Bcl6 (endogenous, mouse CD4+ T cells) (mouse) (UniProt P41183); assay: endogenous co-IP and co-IP from transfected 293T cells (FIG. 8)
[2] = target: p85α (endogenous, mouse CD4+ T cells) (mouse) (UniProt P26450); assay: co-IP, transfected 293T cells and primary mouse CD4+ T cells (FIG. 6)
[3] = target: Bcl6 (endogenous, mouse CD4+ T cells) (mouse) (UniProt P41183); assay: endogenous co-IP from CD62L- CD4+ T cells of OPN-i KI mice 3 d after immunization (FIG. 8A)
[4] = target: p85α (endogenous, mouse CD4+ T cells) (mouse) (UniProt P26450); assay: co-immunoprecipitation from primary mouse CD62L- CD4+ T cells after anti-CD3/anti-ICOS stimulation (FIG. 6B)

Measured: binding

intracellular osteopontin (OPN-i) (from UniProt P10923 17-294)
binds: all assays above
